Reference: PMC2976705
These are yes or no findings as the source states them, for the method shown. In cells and extracts the contact can be indirect. Some entries that bind do so weakly or less than the wild type.

Sequences of proteins named here, by UniProt entry; tags and fusion partners are left off.
UniProt Q00613: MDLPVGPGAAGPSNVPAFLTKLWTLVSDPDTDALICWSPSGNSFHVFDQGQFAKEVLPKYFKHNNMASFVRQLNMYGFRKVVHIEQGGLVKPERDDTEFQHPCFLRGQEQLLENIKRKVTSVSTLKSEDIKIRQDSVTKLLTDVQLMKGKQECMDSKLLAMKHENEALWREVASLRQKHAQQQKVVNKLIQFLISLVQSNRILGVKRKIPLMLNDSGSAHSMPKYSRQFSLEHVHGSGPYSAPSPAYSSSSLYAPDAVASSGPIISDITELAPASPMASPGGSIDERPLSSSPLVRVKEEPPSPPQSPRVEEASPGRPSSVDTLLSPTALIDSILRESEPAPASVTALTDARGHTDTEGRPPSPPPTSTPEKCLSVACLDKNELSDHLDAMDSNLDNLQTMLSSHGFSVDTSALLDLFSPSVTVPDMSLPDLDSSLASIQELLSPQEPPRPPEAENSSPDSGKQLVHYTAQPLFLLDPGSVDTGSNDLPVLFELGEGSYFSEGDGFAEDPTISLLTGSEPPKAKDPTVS
UniProt O14980: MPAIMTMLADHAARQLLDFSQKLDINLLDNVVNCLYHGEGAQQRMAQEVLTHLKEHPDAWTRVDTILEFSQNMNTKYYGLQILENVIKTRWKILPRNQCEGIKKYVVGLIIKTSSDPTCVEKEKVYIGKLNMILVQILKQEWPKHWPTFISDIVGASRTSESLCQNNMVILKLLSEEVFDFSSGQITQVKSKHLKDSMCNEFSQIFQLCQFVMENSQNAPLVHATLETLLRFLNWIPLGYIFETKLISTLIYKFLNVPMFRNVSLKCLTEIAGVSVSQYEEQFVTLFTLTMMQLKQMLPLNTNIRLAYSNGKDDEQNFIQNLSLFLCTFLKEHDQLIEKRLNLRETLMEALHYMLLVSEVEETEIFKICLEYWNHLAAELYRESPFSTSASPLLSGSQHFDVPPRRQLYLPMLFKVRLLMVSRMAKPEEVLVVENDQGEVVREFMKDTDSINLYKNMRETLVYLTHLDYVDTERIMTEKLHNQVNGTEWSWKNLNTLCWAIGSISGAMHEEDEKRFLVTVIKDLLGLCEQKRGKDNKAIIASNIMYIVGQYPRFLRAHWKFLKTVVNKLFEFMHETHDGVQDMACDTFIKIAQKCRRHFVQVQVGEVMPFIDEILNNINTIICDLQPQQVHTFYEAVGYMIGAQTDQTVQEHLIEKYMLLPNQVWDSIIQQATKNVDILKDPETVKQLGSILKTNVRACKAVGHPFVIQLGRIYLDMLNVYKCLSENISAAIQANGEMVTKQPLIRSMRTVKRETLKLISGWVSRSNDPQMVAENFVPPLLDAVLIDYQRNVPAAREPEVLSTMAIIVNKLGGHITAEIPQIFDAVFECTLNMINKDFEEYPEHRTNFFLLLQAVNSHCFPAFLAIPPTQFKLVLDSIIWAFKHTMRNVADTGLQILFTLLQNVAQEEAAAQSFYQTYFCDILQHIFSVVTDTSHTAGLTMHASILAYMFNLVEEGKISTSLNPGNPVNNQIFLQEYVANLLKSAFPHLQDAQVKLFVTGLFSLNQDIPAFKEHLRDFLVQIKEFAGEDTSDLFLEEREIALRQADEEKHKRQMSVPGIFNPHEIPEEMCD

Molecular target: Heat Shock Factor 1 (human (endogenous in HeLa and MCF-7)) (UniProt Q00613)
Assay: co-IP; unpublished data; with or without heat shock; cells and antibodies not stated

Substance: CRM1/exportin1 (from UniProt O14980 1-1071)
- binding: binds
